# This is one part of the list. Shown are side measurements of this screen, not its main read-out; they come without a call. Most of these compounds were active or inconclusive in the main read-out, so they are no random draw. Words in brackets tell the shape of the fitted curve; partial curves, single points and poor fits give uncertain potencies.
# Experiment: qHTS Assay for Lipid Storage Modulators in Drosophila S3 Cells;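 on cell number change: cells counted by Cell Tracker Red CMTPX staining in the red channel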
# Details: BODIPY lipid droplet fluorescence, 18-24 h; for cell number change: measured here: cell count max response, cells fed with added oleic acid
# Procedure, shortened: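 Laser-scanning cytometry quantifies lipid droplet accumulation (500–530 nm total intensity; droplet/cell object ratio) in oleic acid-fed (400 uM added) Drosophila S3 cells treated with a concentration series. 20 uM Triacsin C defined 100% inhibition.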
# [1] = measured here: lipid fluorescence (Fed channel) AC50, cells fed with added oleic acid
# [2] = measured here: cell number channel AC50, cells fed with added oleic acid
Structure (SMILES),cell number change [%],AC50 [1],AC50 [2]
CCCCC(=O)N1CCN(c2nc3ccc(OCC)cc3s2)CC1,-9.07,,
CCOC(=O)Cn1c(=O)n(C2CCCC2)c(=O)c2ccccc21,-6.12,,
CCCc1cc(=O)[nH]c(SCC(=O)Nc2sc3c(c2C#N)CCCC3)n1,2.68,"29.1 µM [rising, single point]",
c1cncc(C(c2nnnn2C2CCCC2)N2CCN(Cc3ccc4c(c3)OCO4)CC2)c1 (stereo unspecified),,"0.259 µM [rising, full curve, poor fit]",
O=C(CSc1nc2cc(Cl)ccc2s1)NCc1ccc2c(c1)OCO2,-20.4,"32.6 µM [falling, single point]",
COc1ccc(CNC(=O)Cn2c(=O)n(CCC(=O)N3CCCCC3)c(=O)c3sccc32)cc1,13.8,,
Cc1nn(-c2ccccc2)nc1CNC(=O)c1ncoc1-c1ccccc1,18.1,"3.66 µM [falling, single point]","2.06 µM [falling, single point]"
COc1cccc(CN2CCN(Cc3cc(OC)c(OC)c(OC)c3)CC2)c1OC,-15.1,"20.6 µM [rising, single point]",
CC(=O)c1cnc2c(-c3cccc(Br)c3)cnn2c1C,12.7,"0.231 µM [rising, full curve]",
Cc1ccccc1OCc1nnc(SCc2cc(=O)[nH]c3ccccc23)o1,,"6.51 µM [rising, single point]","6.51 µM [rising, single point]"
O=C(CCC(=O)c1cccs1)OCC(=O)c1ccc(Cl)s1,2.4,"6.51 µM [rising, full curve]",
Cc1cccc2nc3c(nc12)-c1ccccc1C3=O,27.4,"0.231 µM [rising, full curve]",
CCc1cccc(NC(=O)CCc2nc(-c3cccs3)no2)c1,-1.59,"1.84 µM [falling, partial curve, poor fit]",
Cc1ccc(C(=O)NCC(=O)OCN2C(=O)c3ccccc3C2=O)cc1C,12.4,"4.61 µM [rising, partial curve, poor fit]",
CCOC(=O)Cn1cnc2sc3c(c2c1=O)CCC3,-166,"29.1 µM [falling, single point]","23.1 µM [falling, partial curve]"
CCc1cccc(NC(=O)CN(c2ccc(C)cc2)S(=O)(=O)c2c(C)noc2C)c1,5.65,"29.1 µM [falling, single point]",
CC1CCc2c(C(=O)Oc3cccc(-n4cnnn4)c3)csc2C1 (stereo unspecified),-3.14,"0.259 µM [falling, full curve]",
CCOCC(=O)Nc1c(C(=O)Nc2ccccc2OC)oc2ccccc12,-19.1,,
COc1ccc(C)cc1-n1c(SCC(=O)Nc2cc(C)on2)nc2sc(C)c(C)c2c1=O,-4.41,"3.66 µM [rising, full curve, poor fit]",
Cc1ccc(S(=O)(=O)N2CC(=O)Nc3ccccc32)cc1C,19.1,"13 µM [rising, single point]",

# A second format for part of the listing above.
Structure (SMILES)	cell number change [%]	AC50 [1]	AC50 [2]
Cc1nn(-c2ccccc2)nc1CNC(=O)c1ncoc1-c1ccccc1	18.1	3.66 µM [falling, single point]	2.06 µM [falling, single point]
COc1cccc(CN2CCN(Cc3cc(OC)c(OC)c(OC)c3)CC2)c1OC	-15.1	20.6 µM [rising, single point]	

# Later entries:

Structure (SMILES),cell number change [%],AC50 [1],AC50 [2]
Cc1ccc(-c2csc(NC(=O)c3cnccn3)n2)cc1C,140,,"29.1 µM [rising, single point]"
O=S(=O)(NCc1ccncc1)c1ccccc1,,"2.31 µM [falling, partial curve]","0.517 µM [falling, partial curve, poor fit]"
O=C(COC(=O)c1ccccc1NCCO)NCCC1=CCCCC1,-3.5,,
Cc1ccsc1CN(C)C(=O)c1cc(S(=O)(=O)N2CCOCC2)ccc1N1CCCC1,10.4,"0.164 µM [falling, full curve, poor fit]",
COC(=O)c1nn(-c2ccc(OC)cc2)c(=O)cc1Sc1ccc(C)cc1,-24.4,,"0.326 µM [rising, single point]"
Cn1nc(C(=O)NC2CCCCC2)c2c1-c1ccccc1SC2,14.4,"29.1 µM [rising, single point]","0.00461 µM [rising, full curve, poor fit]"
COc1ccc(N2CC(C(=O)Nc3nc(-c4ccccc4)c(C(C)=O)s3)CC2=O)c(OC)c1 (stereo unspecified),21.2,,
O=C(O)c1cc2nc(-c3cccs3)cc(C(F)(F)F)n2n1,-14.5,"0.00731 µM [falling, full curve, poor fit]","4.61 µM [rising, single point]"
CCOc1ccc(N/C=C/C(=O)c2ccc3ccccc3c2)c([N+](=O)[O-])c1,28.8,"0.13 µM [rising, full curve, poor fit]",
Cc1ccc(N2CC(NC(=O)N3CCN(C(=O)c4ccco4)CC3)CC2=O)cc1 (stereo unspecified),8.86,"20.6 µM [falling, single point]",
CC(=O)c1cccc(NC(=O)CCNS(=O)(=O)c2cccc3nsnc23)c1,37.3,"23.1 µM [rising, partial curve]","29.1 µM [rising, single point]"
COc1ccc(/C=C(\C#N)C(=O)NCc2cccs2)cc1OC,5.99,"1.46 µM [falling, partial curve]",
COc1ccc(/C=C/c2nc(C#N)c(NCCN(C)C)o2)cc1OC,1.55,"0.00411 µM [rising, full curve, poor fit]",
CCN(CC)CCN1C(=O)C2C3c4ccccc4C(c4ccccc43)C2C1=O (stereo unspecified),-28.2,"4.11 µM [falling, full curve]",
CN1CCc2c(sc3nc(NN)n(Cc4ccccc4)c(=O)c23)C1,,"0.082 µM [rising, full curve]",
COc1ccc(C(=O)N2CCN(Cc3ccc4c(c3)OCO4)CC2)cc1OC,-18.4,"20.6 µM [falling, single point]",
COc1ccc(C2CC(c3cccs3)=NN2C(=O)CSc2nncn2C)cc1OC (stereo unspecified),-3.17,"3.66 µM [rising, single point]","4.61 µM [rising, single point]"
Cc1cc(CN2CCCCC2)oc1C(=O)O,-22.2,"0.651 µM [falling, partial curve, poor fit]",
C=CCN=C1NN=C(c2cc(C)n(CCOC)c2C)CS1,24.1,"0.326 µM [falling, partial curve, poor fit]",
Cc1c(C(=O)Nc2ccccc2)sc2ncn(CC(=O)N3CCCCC3)c(=O)c12,-0.435,"0.58 µM [falling, single point]",

# Three neighbouring records already listed, quoted:
Structure (SMILES),cell number change [%],AC50 [1],AC50 [2]
c1cncc(C(c2nnnn2C2CCCC2)N2CCN(Cc3ccc4c(c3)OCO4)CC2)c1 (stereo unspecified),,"0.259 µM [rising, full curve, poor fit]",
O=C(CSc1nc2cc(Cl)ccc2s1)NCc1ccc2c(c1)OCO2,-20.4,"32.6 µM [falling, single point]",
COc1ccc(CNC(=O)Cn2c(=O)n(CCC(=O)N3CCCCC3)c(=O)c3sccc32)cc1,13.8,,

# Later entries

Structure (SMILES),cell number change [%],AC50 [1],AC50 [2]
COCc1cc(C)nc(SCC[N+](C)(C)CC(=O)Nc2cccc(C(F)(F)F)c2)c1C#N,-48.5,"3.66 µM [falling, full curve]","0.00517 µM [falling, full curve, poor fit]"
CC(C)N1CC(O)=C(c2ccccc2)C1=N,-7.45,"0.0116 µM [falling, full curve]",
COc1ccc(C(=O)Nc2ccc(N3CCCC3)cc2)cc1OC,-24.3,,
COc1ccc(C(=O)NC(=S)NCc2cccnc2)cc1[N+](=O)[O-],10.4,"6.51 µM [rising, full curve, poor fit]",
Nc1ncnc2c1ncn2C1CCC(CO)C(O)C1 (stereo unspecified),-33.4,"4.11 µM [falling, full curve]","0.206 µM [falling, full curve]"
O=C(Cn1cc(C(F)(F)F)ccc1=O)NCc1ccc(F)cc1,-1.9,,"0.103 µM [falling, partial curve, poor fit]"
Cc1ccc(S(=O)(=O)Cn2nnnc2C(C)N2CCN(C(=O)c3ccco3)CC2)cc1 (stereo unspecified),-10.4,,
CCOC(=O)C1CCN(CC(O)COCc2ccc(Cl)cc2)CC1 (stereo unspecified),,"23.1 µM [falling, single point]",
O=C(Nc1ccncc1)C1CCN(S(=O)(=O)c2ccc(Cl)c(C(F)(F)F)c2)CC1,,"11.6 µM [falling, partial curve, poor fit]",
COc1cc(NC(=O)CCc2nnc3ccc(N4CCCCC4)nn23)cc(OC)c1OC,-28.3,"29.1 µM [falling, single point]",
O=S(=O)(NCCCc1ccccc1)c1ccc(Cl)cc1,-31.6,"11.6 µM [falling, partial curve, poor fit]","10.3 µM [falling, partial curve, poor fit]"
CC(=O)N1CCN(Cc2nc3cc(NC(=O)COc4cccc(C)c4)ccc3n2C)CC1,24.8,"6.51 µM [falling, single point]","0.00517 µM [rising, full curve, poor fit]"
COC(=O)c1ccccc1NC(=O)CN1C(=O)NC2(CCCCCCC2)C1=O,9.96,"4.11 µM [rising, full curve, poor fit]",
O=C(Cc1cccc(C(F)(F)F)c1)Nc1cc(S(=O)(=O)N2CCOCC2)ccc1N1CCCC1,-13.7,"0.651 µM [falling, single point]",
CCCCNS(=O)(=O)NC(=O)C1=C(N2CCCC2)COC1=O,8.9,"0.00517 µM [rising, full curve, poor fit]",
CCNC(=S)N1C2CCC1CC(NC(=O)Nc1ccc(C(=O)OCC)cc1)C2 (stereo unspecified),29.6,"16.4 µM [rising, partial curve]",
Brc1cc2c(cc1Br)OCCOCCOCCO2,13.7,"25.9 µM [rising, single point]",
O=C(NCc1ccccn1)Nc1cccc(Cl)c1Cl,-2.31,,
CCO[C@@H]1OC(C(=O)NC2CC2)=C[C@H](C2CC2)[C@H]1CCCO,,,"0.146 µM [falling, full curve, poor fit]"
Cc1nnc(NC(=O)CCCOc2ccccc2)s1,12.3,"29.1 µM [rising, single point]",

# Reference: PubChem BioAssay AID2685 (National Center for Advancing Translational Sciences (NCATS), 2010)
